In PubChem BioAssay AID463205 (Broad Institute, 2010):
Out of some 2,400 compounds screened, about 20 (0.8%) were called active.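 How the source made its calls: active means AC50 no more than ten times the highest tested concentration, or full inhibition at every dose giving a flat fit (cut at about 30 µM in these data); inconclusive means flat fit with activity between 30% and 70%, or poor-quality invalid fit; inactive means AC50 more than ten times the top tested dose.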 This is one part of the list.

Assay: luciferase-based ADP detection interference – biochemical, luminescence, cell-free, homogeneous, artefact control for GSK-3a inhibitor project, dose response (AID 463205);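 further: kinase-free counter-screen against the ADP-Glo detection reagents only; potency is for inhibitors that reduce the luminescence signal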
Conditions: Cell-free ADP-Glo detection reagents, 5 uM ADP

AC50, inactive:
COc1ccc2nc(NC(=O)CN3C(=O)NC4(CCCC4)C3=O)sc2c1 > 30 µM
Cc1ccccc1CNC(=O)c1cc(COc2ccc(F)cc2F)on1 > 30 µM
N#CC1=C2SCN(Cc3ccco3)CN2C(=O)CC1c1c(F)cccc1Cl (stereo unspecified) > 30 µM
CC(C)COc1ncnc2c1sc1nc3c(cc12)COC(C)(C)C3 > 30 µM
Cc1nnc(NC(=O)c2cccc(S(=O)(=O)N3CC(c4ccccc4)CC3=O)c2)s1 (stereo unspecified) > 30 µM
O=C(NCCCN1CCN(CCCNC(=O)c2ccc3c(c2)OCO3)CC1)c1ccc2c(c1)OCO2 > 30 µM
N#Cc1c(-c2ccccc2Cl)c2c([nH]c1=O)-c1ccccc1OC2 > 30 µM
Fc1cccc(/C=N/Nc2cc(N3CCOCC3)ncn2)c1 > 30 µM
CCCC(=O)NC(=S)Nc1sc2c(c1C(N)=O)CCC2 > 30 µM
Nc1n[nH]c2cc(=O)n(-c3ccc(Cl)cc3)nc12 > 30 µM
O=C(NC1CCCC1)c1ccc(Cn2c(=O)[nH]c3ccsc3c2=O)cc1 > 30 µM
COc1ccc(S(=O)(=O)NC(C)C(=O)O)cc1 (stereo unspecified) > 30 µM
Cc1nc2c(c3c1[nH]c1ccccc13)C(=O)CC(C)(C)C2 > 30 µM
O=C(NC(=S)Nc1cccc2c(O)cccc12)c1ccccc1[N+](=O)[O-] > 30 µM
COc1ccccc1NC(=O)CSc1ccc2nnc(-c3ccc(C)cc3)n2n1 > 30 µM
CS(=O)(=O)N1CCN(c2ccc(NC(=O)c3ccc(Br)o3)cc2)CC1 > 30 µM
Cn1cnnc1SCC(=O)Nc1ncc([N+](=O)[O-])s1 > 30 µM
N#CCCN(Cc1ccccc1)S(=O)(=O)c1cccs1 > 30 µM
NC(=O)c1ccsc1NC(=O)C1CCCCC1 > 30 µM
Cc1nc(S/C(=C/c2ccc(-c3ccc(C(=O)O)cc3)o2)C(=O)O)n[nH]1 > 30 µM
CC(=O)N1CCN(c2ccccc2NC(=O)c2ccc(Br)o2)CC1 > 30 µM
COc1ccc(NC(=O)Nc2ccc(F)cc2F)c(C)c1 > 30 µM
O=C1/C(=C/c2ccc3c(c2)OCO3)Oc2cc(OCC(=O)N3CC(O)C[C@H]3C(=O)O)ccc21 (stereo partly specified) > 30 µM
Nc1ccccc1-c1nc2ccccc2[nH]1 > 30 µM
O=C(CSc1ccc2nnc(-c3ccccn3)n2n1)N1CCN(c2ccccc2)CC1 > 30 µM
Cc1cccc(NC(=O)CSc2nc3[nH]ncc3c(=O)n2-c2ccccc2)c1 > 30 µM
COCCCNc1nc2nonc2nc1N1C[C@H]2CC[C@H]1C2 > 30 µM
CC1(C)CC(=O)c2cnc(NCC3CCCO3)nc2C1 (stereo unspecified) > 30 µM
CC(=O)Nc1cccc(-c2csc(Nc3ccccn3)n2)c1 > 30 µM
CCCN(CCC)Cc1c(C(=O)N/N=C/C(C)=C\c2ccco2)nnn1-c1nonc1N > 30 µM
N#CC1=C2SCN(c3ccccc3)CN2C(=O)CC1c1ccccc1Cl (stereo unspecified) > 30 µM
COc1ccc(OC)c(N=c2oc3c(OC)cccc3cc2C(=O)NCc2ccco2)c1 > 30 µM
COc1ccc(OC)c(C2CC(=O)N3CN(c4ccccc4)CSC3=C2C#N)c1 (stereo unspecified) > 30 µM
CCOC(=O)c1sc(NC(=O)CN2C(=O)NC3(CCC(C)CC3)C2=O)c(C(=O)OCC)c1C (stereo unspecified) > 30 µM
N#Cc1c(N)n(CCNC(=O)c2cccs2)c2nc3ccccc3nc12 > 30 µM
CCOC(=O)c1cc(CC)sc1NC(=O)CN1CCN(C(=O)c2ccco2)CC1 > 30 µM
Brc1ccccc1/C=N/Nc1ccc2ccccc2n1 > 30 µM
COC(=O)c1ccccc1N=Nc1c(N)[nH][nH]c1=O > 30 µM
COc1ccc(C2C3(C#N)C(N)=NC(OC)(OC)C23C#N)cc1 (stereo unspecified) > 30 µM
Cc1ccc(C2C3=C(CCCC3=O)Nc3c2c(C)nn3-c2ccccn2)o1 (stereo unspecified) > 30 µM
COc1cccc(-n2c(SCC(N)=O)nnc2-c2ccco2)c1 > 30 µM
O=C(COC(=O)c1cc(=O)[nH]c2ccccc12)Nc1ccc(Cl)cn1 > 30 µM
CN(C)S(=O)(=O)N1CCN(c2ccnc3cc(Cl)ccc23)CC1 > 30 µM
CN(Cc1c(C(=O)N/N=C/c2ccccc2)nnn1-c1nonc1N)C1CCCCC1 > 30 µM
O=c1cc(-c2ccccc2Cl)oc2c(NS(=O)(=O)c3cc(Cl)cc(Cl)c3O)ccc(O)c12 > 30 µM
Cc1cc(/C=N/Nc2ccc([N+](=O)[O-])cn2)c(C)n1-c1cccc(C(=O)O)c1 > 30 µM
Fc1ccc(Nc2nc(-c3ccncc3)nc3ccccc23)cc1F > 30 µM
CCc1nnc(NC(=O)c2cccc(S(=O)(=O)N3CC(c4ccccc4)CC3=O)c2)s1 (stereo unspecified) > 30 µM
CC1(C)CC(=O)C(C(c2cccnc2)C2C(=O)CC(C)(C)CC2=O)C(=O)C1 > 30 µM
CC(=O)c1sc(NC(=O)CN2C(=O)C3CCCCC3C2=O)nc1-c1ccccc1 (stereo unspecified) > 30 µM
CCOc1ccc2nnc(-c3ccc(Br)cc3)n2n1 > 30 µM
Cc1ccc(-c2c3c(nc4sc(C(N)=O)c(N)c24)CCC3)cc1 > 30 µM
Cc1ccc(S(=O)(=O)N(CC(O)CN2CCCCC2)c2ccccc2)cc1 (stereo unspecified) > 30 µM
CC(C)CC(=O)NC(=S)Nc1sc2c(c1C(N)=O)CCC2 > 30 µM
Cc1cccc(N2CC(C(=O)Nc3nccs3)CC2=O)c1C (stereo unspecified) > 30 µM
CCCC(=O)Nc1ccc2c(c1)C(=O)NC2=O > 30 µM
CCn1c2ccc(Cl)cc2c2nc3ccccc3nc21 > 30 µM
O=C1C(SCCO)=C(SCCO)C(=O)c2ccccc21 > 30 µM
CC[n+]1c(/C=C/C=C/N(C(C)=O)c2ccccc2)sc2ccccc21 > 30 µM
O=C(Nc1cccc(F)c1)C1CCCN1S(=O)(=O)c1cccc2cccnc12 (stereo unspecified) > 30 µM
C[C@@H]1O[C@@H](O[C@H]2[C@H](O)[C@@H](O)[C@H](Oc3c(-c4ccc(O)c(O)c4)oc4cc(O)cc(O)c4c3=O)O[C@@H]2CO)[C@H](O)[C@H](O)[C@H]1O > 30 µM
Cc1cccc(NC(=O)c2sc(Cl)nc2-c2ccccc2)c1 > 30 µM
Cc1noc(C)c1COc1ccc2ccc(=O)oc2c1 > 30 µM
CCc1cc(C(=O)c2ccc(OC)cc2)c(NC(=O)COCC(=O)O)s1 > 30 µM
O=[N+]([O-])c1ccc(NCCCN2CCOCC2)c([N+](=O)[O-])c1 > 30 µM
CCC(=O)/C=C1/Sc2ccc(OC)cc2N1CC > 30 µM
CCOC(=O)c1cc(CC)sc1NC(=O)COC(=O)c1ccccn1 > 30 µM
COc1ccc2nc(NC(=O)C3CCCN3S(=O)(=O)c3ccc(C)cc3)sc2c1 (stereo unspecified) > 30 µM
Cc1nc(SCC(=O)NCC2CCCO2)c2c3c(sc2n1)CCCC3 (stereo unspecified) > 30 µM
COc1ccc(-c2ccccc2)c2oc(-c3ccco3)cc(=O)c12 > 30 µM
CC(C)=CCc1cc(-c2oc3cc(O)cc(O)c3c(=O)c2O)ccc1O > 30 µM
Cc1cccc2cc(C#N)c(NCCNC(=S)NCCCN3CCOCC3)nc12 > 30 µM
COc1cccc(/C=C2\SC(=O)NC2=O)c1OCc1ccc(C(=O)O)cc1 > 30 µM
CCOC(=O)c1c(NC(=O)C2CC2)sc(C)c1CC > 30 µM
NC(=O)NCC12CC3CC(CC(C3)C1)C2 > 30 µM
COc1cc(C2c3sc(=O)[nH]c3SC3C4CCC(C4)C23)ccc1O (stereo unspecified) > 30 µM
CCc1ccc(NC(=O)N[C@H](C(=O)O)C(C)CC)cc1 (stereo partly specified) > 30 µM
CS(=O)(=O)N1CCN(c2ccnc3cc(Cl)ccc23)CC1 > 30 µM
O=C(CSc1nnc(-c2ccncc2)s1)Nc1ccccc1 > 30 µM
COc1ccc(NC(=O)CNc2cccc(S(=O)(=O)N3CCCCCC3)c2)c([N+](=O)[O-])c1 > 30 µM
CC(C)CCSc1cc(NCCO)c([N+](=O)[O-])c2nonc12 > 30 µM
Oc1ccc2c(c1)oc1cc(O)ccc12 > 30 µM
COc1cccc(/C=C2\Oc3ccc(O)cc3C2=O)c1O > 30 µM
COC(=O)CSc1nc(NCC(C)C)nc(N2CCOCC2)n1 > 30 µM
Cc1nc2sc(C(N)=O)c(N)c2c2c1CCCC2 > 30 µM
NCc1cccc(CNc2ccc([N+](=O)[O-])cc2C(N)=O)c1 > 30 µM
COC(=O)C1=C(C)N(C)C(=O)/C1=C\c1ccco1 > 30 µM
CCOCCCN(C(=O)c1snc(C(N)=O)c1N)C(C(=O)NC1CCCC1)c1ccc(O)cc1 (stereo unspecified) > 30 µM
CCCCCCCCCCOC(=O)Cn1c(COc2ccc(Cl)cc2)[n+](C)c2ccccc21 > 30 µM
Nn1cnnc1N/N=C\c1ccc(-c2ccccc2[N+](=O)[O-])o1 > 30 µM
Cc1sc2ncnc(SCC(=O)NCC3CCCO3)c2c1C (stereo unspecified) > 30 µM

Looked up one by one from the list above, 6 records:
AC50, inactive:
Cc1cccc2cc(C#N)c(NCCNC(=S)NCCCN3CCOCC3)nc12 > 30 µM
NCc1cccc(CNc2ccc([N+](=O)[O-])cc2C(N)=O)c1 > 30 µM
CC(=O)c1sc(NC(=O)CN2C(=O)C3CCCCC3C2=O)nc1-c1ccccc1 (stereo unspecified) > 30 µM
CC(C)CC(=O)NC(=S)Nc1sc2c(c1C(N)=O)CCC2 > 30 µM
Cn1cnnc1SCC(=O)Nc1ncc([N+](=O)[O-])s1 > 30 µM
Fc1cccc(/C=N/Nc2cc(N3CCOCC3)ncn2)c1 > 30 µM

3 entries from above, ordered by SMILES length, smallest number first.
AC50, inactive:
CCn1c2ccc(Cl)cc2c2nc3ccccc3nc21 > 30 µM
O=C(CSc1ccc2nnc(-c3ccccn3)n2n1)N1CCN(c2ccccc2)CC1 > 30 µM
Cc1nnc(NC(=O)c2cccc(S(=O)(=O)N3CC(c4ccccc4)CC3=O)c2)s1 (stereo unspecified) > 30 µM
